Source: article PMC6937732
These are yes or no findings as the source states them, for the method shown. In cells and extracts the contact can be indirect. Some results given as binding are weak or reduced against the parent protein; the word gives no strength. Sequences can lack the tags named with a protein.

Molecular target: T1, HA-TOPK (pcDNA3-HA-TOPK) (UniProt Q96KB5)
T1 sequence: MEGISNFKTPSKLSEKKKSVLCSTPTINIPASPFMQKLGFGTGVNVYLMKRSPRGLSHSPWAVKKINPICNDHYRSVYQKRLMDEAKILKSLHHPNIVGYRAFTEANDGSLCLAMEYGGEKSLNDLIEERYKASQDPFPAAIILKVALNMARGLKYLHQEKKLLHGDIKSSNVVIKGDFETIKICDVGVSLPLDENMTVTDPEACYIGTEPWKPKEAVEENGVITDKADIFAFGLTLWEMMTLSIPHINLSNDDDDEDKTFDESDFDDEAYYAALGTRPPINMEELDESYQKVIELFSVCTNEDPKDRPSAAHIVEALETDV
Assay: co-IP; HEK293 cells transfected with pcDNA3-HA-TOPK and/or pDEST-myc-γ-catenin for 72 h; lysed in CHAPS buffer; immunoprecipitated with anti-HA antibody; myc detected by western blotting

binding: binds
B1: myc-γ-catenin (pDEST-myc-γ-catenin) (protein, UniProt P14923 1-745)
chain: MEVMNLMEQPIKVTEWQQTYTYDSGIHSGANTCVPSVSSKGIMEEDEACGRQYTLKKTTTYTQGVPPSQGDLEYQMSTTARAKRVREAMCPGVSGEDSSLLLATQVEGQATNLQRLAEPSQLLKSAIVHLINYQDDAELATRALPELTKLLNDEDPVVVTKAAMIVNQLSKKEASRRALMGSPQLVAAVVRTMQNTSDLDTARCTTSILHNLSHHREGLLAIFKSGGIPALVRMLSSPVESVLFYAITTLHNLLLYQEGAKMAVRLADGLQKMVPLLNKNNPKFLAITTDCLQLLAYGNQESKLIILANGGPQALVQIMRNYSYEKLLWTTSRVLKVLSVCPSNKPAIVEAGGMQALGKHLTSNSPRLVQNCLWTLRNLSDVATKQEGLESVLKILVNQLSVDDVNVLTCATGTLSNLTCNNSKNKTLVTQNSGVEALIHAILRAGDKDDITEPAVCALRHLTSRHPEAEMAQNSVRLNYGIPAIVKLLNQPNQWPLVKATIGLIRNLALCPANHAPLQEAAVIPRLVQLLVKAHQDAQRHVAAGTQQPYTDGVRMEEIVEGCTGALHILARDPMNRMEIFRLNTIPLFVQLLYSSVENIQRVAAGVLCELAQDKEAADAIDAEGASAPLMELLHSRNEGTATYAAAVLFRISEDKNPDYRKRVSVELTNSLFKHDPAAWEAAQSMIPINEPYGDDMDATYRPMYSSDVPLDPLEMHMDMDGDYPIDTYSDGLRPPYPTADHMLA
